The values below come from paper PMC12317070.

The chains behind the UniProt entries cited, without tags or fusion partners. Where a name states a change or a piece, a line headed by the entry shows the natural chain unless it says otherwise. Residues count along the entry.
UniProt O95721: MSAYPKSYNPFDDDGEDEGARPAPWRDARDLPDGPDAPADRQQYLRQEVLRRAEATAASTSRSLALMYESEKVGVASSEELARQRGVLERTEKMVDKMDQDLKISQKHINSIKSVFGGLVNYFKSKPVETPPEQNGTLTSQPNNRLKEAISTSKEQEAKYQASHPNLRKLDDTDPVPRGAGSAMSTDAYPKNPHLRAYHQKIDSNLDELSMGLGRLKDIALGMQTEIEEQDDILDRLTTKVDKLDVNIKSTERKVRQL
UniProt P56962, residues 1-224: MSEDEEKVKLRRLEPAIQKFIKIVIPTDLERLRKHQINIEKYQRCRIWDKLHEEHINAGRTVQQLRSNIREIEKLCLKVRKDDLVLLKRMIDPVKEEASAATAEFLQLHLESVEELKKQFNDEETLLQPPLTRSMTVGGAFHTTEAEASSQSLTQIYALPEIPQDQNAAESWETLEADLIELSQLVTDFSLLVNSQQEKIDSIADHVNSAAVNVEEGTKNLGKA
UniProt O70404: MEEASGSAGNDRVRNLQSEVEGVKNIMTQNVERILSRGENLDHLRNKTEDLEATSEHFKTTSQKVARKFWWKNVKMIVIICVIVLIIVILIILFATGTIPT

Test [1] has as its target SNAP29 (untagged, purified) (UniProt O95721). The test is described as follows: co-IP; both purified.
Test [2] has as its target GST-STX17 (amino acids 1-224) (UniProt P56962). The test is described as follows: pull-down; both purified.

No constants are given. Whether binding was seen depends on the method and setting. Binding calls can cover weak binding; strength is not graded here. For some assays here: Binding seen in cells or lysates may run through a third protein.

Turning to VAMP8 (purchased) (from UniProt O70404), the binding result in test [1] and in test [2] was “binds” in each case.
